Experimental data reported in PubChem BioAssay AID2685 (National Center for Advancing Translational Sciences (NCATS), 2010).
The list shows a part of the results. Shown are side measurements of this screen, not its main read-out; they come without a call. Compounds called inactive in the main read-out are mostly missing here. Words in brackets tell the shape of the fitted curve; partial curves, single points and poor fits give uncertain potencies.

Assay: qHTS Assay for Lipid Storage Modulators in Drosophila S3 Cells;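 on cell number change: cells counted by Cell Tracker Red CMTPX staining in the red channel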
Details: BODIPY lipid droplet fluorescence, 18-24 h; for cell number change: measured here: cell count max response, cells fed with added oleic acid
In short: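 Drosophila S3 cells got compounds at several concentrations plus oleic acid (400 uM solution). Laser-scanning cytometry with 488 nm excitation read lipid droplets at 500-530 nm and cells at 575-640 nm. Percent activity was relative to 20 uM Triacsin C.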

[1] = measured here: cell number channel AC50, cells fed with added oleic acid
[2] = measured here: lipid fluorescence (Fed channel) AC50, cells fed with added oleic acid

Row | Structure (SMILES) | cell number change [%] | AC50 [1] | AC50 [2]
1 | COc1cc(/C=N/NC(=O)Cc2cccs2)c([N+](=O)[O-])cc1OC | -22.8 | 0.092 µM [rising, full curve, poor fit] | 
2 | O=C(O)C1CCCCC1C(=O)NCCCCc1ccccc1 (configuration not stated) | 11.2 |  | 3.26 µM [rising, full curve, poor fit]
3 | COc1ccc(CNC(=O)c2cnc(C)cn2)cc1 | -1.74 |  | 
4 | O=C(Cn1c(CO)nc2ccccc21)NC1CCCCCC1 | 24.2 |  | 
5 | Cc1cc(C(=O)OCC(=O)Nc2cc(S(=O)(=O)N(C)C)ccc2Cl)c2ccccc2n1 | 82.1 | 32.6 µM [rising, partial curve, poor fit] | 0.00461 µM [rising, full curve, poor fit]
6 | Nc1nonc1-n1nnc(C(=O)N/N=C/C2CC=CCC2)c1CSc1ccccc1 (configuration not stated) | 20.8 |  | 2.06 µM [rising, full curve, poor fit]
7 | O=C(N[C@@H](Cc1ccccc1)C(=O)OCc1ccccc1)c1nc[nH]c1C(=O)NC1CCNCC1 | 11.6 | 4.11 µM [falling, single point] | 6.51 µM [falling, single point]
8 | Cc1nn(-c2ccccc2)c(Cl)c1/C=N/NS(=O)(=O)c1ccc(Br)cc1 |  |  | 29.1 µM [rising, single point]
9 | CCCN(C(=O)c1ccc(-n2cncn2)c([N+](=O)[O-])c1)C1CCS(=O)(=O)C1 (configuration not stated) | -6.61 |  | 25.9 µM [falling, single point]
10 | Cc1cccc(C)c1N(CC(=O)NN=C1CCCCCC1)S(C)(=O)=O |  |  | 6.51 µM [falling, single point]
11 | Cc1ccc(O)c(-c2[nH]ncc2C(=O)c2ccc(Cl)cc2)c1 | 23.4 |  | 0.651 µM [rising, partial curve, poor fit]
12 | O=C(Nc1cc(Cl)cc(Cl)c1)C1CCCC1 |  |  | 23.1 µM [falling, single point]
13 | CCOC(=O)COc1ccc(C(=O)c2ccccc2)c(O)c1 | -28.7 |  | 
14 | O=Cc1c(NCc2ccccc2)c2ccccc2[nH]c1=O |  |  | 6.51 µM [falling, single point]
15 | C/C(=N\NC(=O)c1cccc(Br)c1)c1ccccn1 | -30.2 | 2.06 µM [falling, full curve] | 3.26 µM [falling, full curve]
16 | COc1ccccc1NC(=O)C1CCCN(S(=O)(=O)c2cccc3nsnc23)C1 (configuration not stated) |  | 5.8 µM [rising, single point] | 13 µM [rising, partial curve, poor fit]
17 | O=C(CN1C2=NCCCN2c2ccccc21)c1ccc2c(c1)OCO2 | 8.8 |  | 0.461 µM [rising, partial curve]
18 | CCOc1ccc(S(=O)(=O)N2CCN(Cc3ccc4c(c3)OCO4)CC2)cc1OCC | 20.5 |  | 
19 | COc1ccc(CCNS(=O)(=O)c2cn(C)cn2)cc1OC | 18 |  | 16.4 µM [rising, partial curve]
20 | COc1ccc(CN(CCC(c2ccco2)C(C)C)C(C)=O)cc1OC (configuration not stated) | 14.4 |  | 5.8 µM [rising, full curve, poor fit]

Single records (already shown):
COc1ccc(CCNS(=O)(=O)c2cn(C)cn2)cc1OC as listed: cell number change [%]: 18; AC50 [2]: 16.4 µM [rising, partial curve]
CCOC(=O)COc1ccc(C(=O)c2ccccc2)c(O)c1 as listed: cell number change [%]: -28.7

Next part.

Row | Structure (SMILES) | cell number change [%] | AC50 [1] | AC50 [2]
21 | CCOCCn1c(CN2CCN(c3ccc(F)cc3)CC2)nc2c1c(=O)n(C)c(=O)n2C | 2.06 |  | 29.1 µM [falling, single point]
22 | Cc1ccc2nc(-c3ccc(NC(=O)COCC(=O)O)cc3)sc2c1 | -41.3 | 29.1 µM [falling, single point] | 23.1 µM [falling, partial curve, poor fit]
23 | CC1CN(S(=O)(=O)c2cccc(C(F)(F)F)c2)CN1C(=O)N1CCOCC1 (configuration not stated) | 13.2 |  | 0.206 µM [falling, full curve]
24 | CCCOc1ccc(C(=O)Nc2ccc(S(=O)(=O)N3CCN(C)CC3)cc2)cc1 | 30.8 | 36.6 µM [rising, single point] | 
25 | CC(C)=CC(=O)NCCc1ccccc1 | -73.3 | 20.6 µM [falling, partial curve] | 
26 | CCC(C)c1ccc(S(=O)(=O)N2CCN(C(C)C(=O)NC3CCCC3)CC2)cc1 (configuration not stated) | 27.4 |  | 0.0411 µM [rising, full curve]
27 | CCN(c1cccc(C(F)(F)F)c1)S(=O)(=O)c1ccc2c(c1)CCN2C(C)=O |  | 2.06 µM [rising, partial curve] | 
28 | Cc1cc(C)n(-c2ccc(C(=O)N3CCN(S(=O)(=O)c4ccc(Cl)cc4)CC3)cc2)n1 | 3.48 |  | 0.92 µM [rising, full curve]
29 | O=C(NCCCN1CCOCC1)C(C(=O)NCCCN1CCOCC1)c1ncc(C(F)(F)F)cc1Cl | -35.6 | 15.8 µM [falling, partial curve] | 15.8 µM [falling, partial curve]
30 | Cc1cc(C)n(-c2ccc(C(=O)OCC(=O)Nc3ccc([N+](=O)[O-])cc3)cc2)n1 | -17.4 | 6.51 µM [falling, single point] | 8.2 µM [rising, partial curve]
31 | O=C(NCc1ccco1)c1ccc2c(=O)n(-c3ccccc3)c(=S)[nH]c2c1 | 6.07 |  | 32.6 µM [rising, partial curve]
32 | Cc1cccn2c(=O)c3cc(C(=O)N4CCCCC4)sc3nc12 | -8.97 |  | 25.9 µM [falling, single point]
33 | Cc1ccc(-n2ncc3c2CCCC3NC(=O)CCN2CCCC2=O)cc1C (configuration not stated) | -56.4 | 32.6 µM [falling, partial curve, poor fit] | 29.1 µM [falling, single point]
34 | COC(=O)Cc1ccc(NC(=O)c2ccc(C(C)(C)C)cc2)cc1 | 127 | 4.61 µM [rising, partial curve] | 7.31 µM [rising, partial curve]
35 | CCOC(=O)c1cnc(-n2nc(C)cc2C)nc1N(C)C | -11.3 |  | 
36 | COc1ccc(N=C2C(=Nc3ccc(OC)cc3)N(c3ccc(N(C)C)cc3)C(=S)N2c2ccc(OC)cc2)cc1 | -89.2 | 1.64 µM [falling, full curve] | 23.1 µM [falling, partial curve, poor fit]
37 | COc1ccc(S(=O)(=O)N2CCN(C)CC2)cc1C | 9.39 |  | 2.91 µM [falling, partial curve, poor fit]
38 | O=C(O)c1ccc(Cl)c(S(=O)(=O)N(Cc2ccccc2)c2ccccc2)c1 | 11.9 |  | 
39 | COc1ccc(C2=CC(=O)C[C@H](c3ccc(OC)c(OC)c3)C2)cc1 | -0.129 |  | 0.164 µM [rising, full curve, poor fit]
40 | COc1ccc2[nH]cc(C(=O)CN3CCN(C4CCCCC4)CC3)c2c1 | 4.72 |  | 29.1 µM [rising, single point]

Row | Structure (SMILES) | cell number change [%] | AC50 [1] | AC50 [2]
41 | Cc1ccc2c(c1)N(C(=O)CCC(=O)NCc1ccccn1)CC(C)O2 (configuration not stated) | 17 |  | 1.03 µM [rising, partial curve, poor fit]
42 | O=C(CN1CCN(S(=O)(=O)N2CCOCC2)CC1)Nc1ccc(Cl)c(Cl)c1 | -7.83 |  | 
43 | Cc1ccc(Oc2ccc(C(=O)NC3CCSC3=O)cn2)cc1 (configuration not stated) | -22.3 |  | 32.6 µM [falling, single point]
44 | O=Cc1ccc(-c2cccc(C(=O)O)c2)o1 | -60.5 | 20.6 µM [falling, partial curve, poor fit] | 23.1 µM [falling, single point]
45 | COc1ccc(N2CCN(CC(=O)NCc3ccc(Cl)cc3)CC2)cc1 | 10.4 |  | 23.1 µM [falling, single point]
46 | CN(Cc1ccccc1)C(=S)Nc1cccnc1 | 2.83 |  | 0.326 µM [falling, full curve, poor fit]
47 | O=C(c1ccco1)N1CCN(CC(=O)N2CCCc3c2c(=O)oc2ccc(O)cc32)CC1 | -136 | 20.6 µM [falling, single point] | 29.1 µM [falling, single point]
48 | COc1ccc(-c2csc(NC(=O)c3c(OC)cccc3OC)n2)cc1 | 20.5 |  | 29.1 µM [rising, single point]
49 | O=C(COC(=O)CNC(=O)c1ccco1)Nc1ccccc1OC(F)F | 21.7 |  | 
50 | COc1ccc(-c2cc3c(=O)n(CC(=O)NCc4ccc(F)cc4)ncn3n2)cc1 | 10.1 | 0.184 µM [rising, full curve, poor fit] | 
51 | CCc1nnc(NC(=O)CSc2nnc3c4ccccc4n(C)c3n2)s1 | 0.91 |  | 3.66 µM [rising, full curve, poor fit]
52 | CCOC(=O)c1cccc(NC(=O)C2CCN(S(=O)(=O)c3cccs3)CC2)c1 | 49.8 |  | 
53 | CC(=O)c1ccc(N2CCN(CC(=O)Nc3ccccc3C(=O)NC3CC3)CC2)c(F)c1 | 14.2 |  | 0.0651 µM [falling, full curve]
54 | CCOCCCN(C(=O)c1snc(C(N)=O)c1N)C(C(=O)NC1CCCC1)c1ccc(O)c(OC)c1 (configuration not stated) | -12.4 |  | 29.1 µM [falling, single point]
55 | O=C(CSc1nc2cc([N+](=O)[O-])ccc2n1-c1ccccc1)NCc1ccc2c(c1)OCO2 | -16.8 |  | 
56 | O=C(OCC(=O)N1CCc2ccccc2C1)c1cccnc1Cl | 31.6 | 25.9 µM [rising, single point] | 29.1 µM [rising, single point]
57 | CN(c1cccc(NC(=O)CSc2ccc(Cl)cc2)c1)S(C)(=O)=O | -16.6 |  | 6.51 µM [rising, single point]
58 | Cc1ccc(C)c2sc(N3CCN(C(=O)c4ccc([N+](=O)[O-])o4)CC3)nc12 |  | 6.51 µM [rising, single point] | 
